# According to the supplement of paper PMC8728848:
# This is one part of the list.
# Key:
# Experiment in all cases: glycan array binding signal (z-score within array); higher = stronger binding
# Conditions in all cases: glycan notation: IUPAC condensed, linker removed
# [1] = molecular target: Neu5Ac(a2-3)Gal(b1-4)GlcNAc(b1-2)[Neu5Ac(a2-3)Gal(b1-4)GlcNAc(b1-4)]Man(a1-3)[GlcNAc(b1-4)][Neu5Ac(a2-3)Gal(b1-4)GlcNAc(b1-2)[Neu5Ac(a2-3)Gal(b1-4)GlcNAc(b1-6)]Man(a1-6)]Man(b1-4)GlcNAc(b1-4)GlcNAc
# In short: (§1)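 The Consortium for Functional Glycomics database supplied 3228 glycan arrays, of which those lacking an available protein sequence were dropped. The binding signal, a within-array Z-score, was averaged across arrays of the same protein sequence and across linkers. Negative scores can be read as non-binding.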
# [2] = molecular target: Neu5Ac(a2-3)Gal(b1-4)GlcNAc(b1-2)[Neu5Ac(a2-3)Gal(b1-4)GlcNAc(b1-4)]Man(a1-3)[GlcNAc(b1-4)][Neu5Ac(a2-3)Gal(b1-4)GlcNAc(b1-4)Man(a1-6)]Man(b1-4)GlcNAc(b1-4)GlcNAc
# In short: as §1
# [3] = molecular target: Neu5Ac(a2-3)Gal(b1-4)GlcNAc(b1-2)[Neu5Ac(a2-3)Gal(b1-4)GlcNAc(b1-6)]Man(a1-6)[Neu5Ac(a2-3)Gal(b1-4)GlcNAc(b1-2)Man(a1-3)][GlcNAc(b1-4)]Man(b1-4)GlcNAc(b1-4)GlcNAc
# In short: as §1
# [4] = molecular target: Neu5Ac(a2-3)Gal(b1-4)GlcNAc(b1-3)Gal
# In short: as §1
# [5] = molecular target: Neu5Ac(a2-3)Gal(b1-4)GlcNAc(b1-3)Gal(b1-3)GlcNAc
# In short: as §1
# [6] = molecular target: Neu5Ac(a2-3)Gal(b1-4)GlcNAc(b1-3)Gal(b1-4)GlcNAc
# In short: as §1
# [7] = molecular target: Neu5Ac(a2-3)Gal(b1-4)GlcNAc(b1-3)Gal(b1-4)GlcNAc(b1-2)Man(a1-3)[Neu5Ac(a2-3)Gal(b1-4)GlcNAc(b1-3)Gal(b1-4)GlcNAc(b1-2)Man(a1-6)]Man(b1-4)GlcNAc(b1-4)GlcNAc
# In short: as §1
# [8] = molecular target: Neu5Ac(a2-3)Gal(b1-4)GlcNAc(b1-3)Gal(b1-4)GlcNAc(b1-3)Gal(b1-4)GlcNAc
# In short: as §1
# [9] = molecular target: Neu5Ac(a2-3)Gal(b1-4)GlcNAc(b1-3)Gal(b1-4)GlcNAc(b1-3)Gal(b1-4)GlcNAc(b1-2)Man(a1-3)[Neu5Ac(a2-3)Gal(b1-4)GlcNAc(b1-3)Gal(b1-4)GlcNAc(b1-3)Gal(b1-4)GlcNAc(b1-2)Man(a1-6)]GalNAc
# In short: as §1
# [10] = molecular target: Neu5Ac(a2-3)Gal(b1-4)GlcNAc(b1-3)Gal(b1-4)GlcNAc(b1-3)GalNAc
# In short: as §1
# [11] = molecular target: Neu5Ac(a2-3)Gal(b1-4)GlcNAc(b1-3)Gal(b1-4)GlcNAc(b1-3)[Neu5Ac(a2-3)Gal(b1-4)GlcNAc(b1-3)Gal(b1-4)GlcNAc(b1-6)]GalNAc
# In short: as §1
# [12] = molecular target: Neu5Ac(a2-3)Gal(b1-4)GlcNAc(b1-3)Gal(b1-4)GlcNAc(b1-6)[Gal(b1-3)]GalNAc
# In short: as §1
# [13] = molecular target: Neu5Ac(a2-3)Gal(b1-4)GlcNAc(b1-3)Gal(b1-4)[Fuc(a1-3)]GlcNAc
# In short: as §1
# [14] = molecular target: Neu5Ac(a2-3)Gal(b1-4)GlcNAc(b1-3)GalNAc
# In short: as §1
# [15] = molecular target: Neu5Ac(a2-3)Gal(b1-4)GlcNAc(b1-3)[Neu5Ac(a2-3)Gal(b1-4)GlcNAc(b1-6)]GalNAc
# In short: as §1
# [16] = molecular target: Neu5Ac(a2-3)Gal(b1-4)GlcNAc(b1-6)GalNAc
# In short: as §1
# [17] = molecular target: Neu5Ac(a2-3)Gal(b1-4)GlcNAc(b1-6)[Gal(b1-3)]GalNAc
# In short: as §1
# [18] = molecular target: Neu5Ac(a2-3)Gal(b1-4)GlcNAc(b1-6)[Neu5Ac(a2-3)Gal(b1-3)]GalNAc
# In short: as §1
# [19] = molecular target: Neu5Ac(a2-3)Gal(b1-4)GlcNAc6S
# In short: as §1
# [20] = molecular target: Neu5Ac(a2-3)Gal(b1-4)[Fuc(a1-3)]GlcNAc
# In short: as §1
# [21] = molecular target: Neu5Ac(a2-3)Gal(b1-4)[Fuc(a1-3)]GlcNAc(b1-2)Man
# In short: as §1
# [22] = molecular target: Neu5Ac(a2-3)Gal(b1-4)[Fuc(a1-3)]GlcNAc(b1-3)Gal
# In short: as §1
# [23] = molecular target: Neu5Ac(a2-3)Gal(b1-4)[Fuc(a1-3)]GlcNAc(b1-3)Gal(b1-4)GlcNAc
# In short: as §1
# [24] = molecular target: Neu5Ac(a2-3)Gal(b1-4)[Fuc(a1-3)]GlcNAc(b1-3)Gal(b1-4)[Fuc(a1-3)]GlcNAc(b1-3)Gal(b1-4)[Fuc(a1-3)]GlcNAc
# In short: as §1
# [25] = molecular target: Neu5Ac(a2-3)Gal(b1-4)[Fuc(a1-3)]GlcNAc(b1-3)GalNAc
# In short: as §1
# [26] = molecular target: Neu5Ac(a2-3)Gal(b1-4)[Fuc(a1-3)]GlcNAc(b1-6)[Gal(b1-3)]GalNAc
# In short: as §1
# [27] = molecular target: Neu5Ac(a2-3)Gal(b1-4)[Fuc(a1-3)]GlcNAc(b1-6)[Neu5Ac(a2-3)Gal(b1-3)]GalNAc
# In short: as §1
# [28] = molecular target: Neu5Ac(a2-3)Gal(b1-4)[Fuc(a1-3)]GlcNAc6S
# In short: as §1
# [29] = molecular target: Neu5Ac(a2-3)Gal6S(b1-4)GlcNAc
# In short: as §1
# [30] = molecular target: Neu5Ac(a2-3)Gal6S(b1-4)[Fuc(a1-3)]GlcNAc
# In short: as §1
# [31] = molecular target: Neu5Ac(a2-3)GalNAc
# In short: as §1
# [32] = molecular target: Neu5Ac(a2-3)GalNAc(b1-4)GlcNAc
# In short: as §1
# [33] = molecular target: Neu5Ac(a2-3)[GalNAc(b1-4)]Gal(b1-4)Glc
# In short: as §1
# [34] = molecular target: Neu5Ac(a2-3)[GalNAc(b1-4)]Gal(b1-4)GlcNAc
# In short: as §1
# [35] = molecular target: Neu5Ac(a2-3)[GalNAc(b1-4)]Gal(b1-4)GlcNAc(b1-3)GalNAc
# In short: as §1
# [36] = molecular target: Neu5Ac(a2-3)[Neu5Ac(a2-6)]GalNAc
# In short: as §1
binder,measurement,setting,value
"Flo1 (Saccharomyces cerevisiae), P32768 (protein) SGATEACLPAGQRKSGMNINFYQYSLKDSSTYSNAAYMAYGYASKTKLGSVGGQTDISIDYNIPCVSSSGTFPCPQEDSYGNWGCKGMGACSNSQGIAYWSTDLFGFYTTPTNVTLEMTGYFLPPQTGSYTFKFATVDDSAILSVGGATAFNCCAQQQPPITSTNFTIDGIKPWGGSLPPNIEGTVYMYAGYYYPMKVVYSNAVSWGTLPISVTLPDGTTVSDDFEGYVYSFDDDLSQSNCTVPDPSNY",glycan array binding signal (z-score),[1],-0.383
same,glycan array binding signal (z-score),[2],0.143
same,glycan array binding signal (z-score),[3],-0.498
same,glycan array binding signal (z-score),[4],-0.134
same,glycan array binding signal (z-score),[5],-0.378
same,glycan array binding signal (z-score),[6],-0.229
same,glycan array binding signal (z-score),[7],-0.401
same,glycan array binding signal (z-score),[8],0.084
same,glycan array binding signal (z-score),[9],0.103
same,glycan array binding signal (z-score),[10],-0.25
same,glycan array binding signal (z-score),[11],0.23
same,glycan array binding signal (z-score),[12],-0.03
same,glycan array binding signal (z-score),[13],-0.296
same,glycan array binding signal (z-score),[14],-0.628
same,glycan array binding signal (z-score),[15],0.545
same,glycan array binding signal (z-score),[16],-0.187
same,glycan array binding signal (z-score),[17],-0.142
same,glycan array binding signal (z-score),[18],-0.544
same,glycan array binding signal (z-score),[19],-0.354
same,glycan array binding signal (z-score),[20],-0.03
same,glycan array binding signal (z-score),[21],0.056
same,glycan array binding signal (z-score),[22],-0.101
same,glycan array binding signal (z-score),[23],0.779
same,glycan array binding signal (z-score),[24],-0.17
same,glycan array binding signal (z-score),[25],1.83
same,glycan array binding signal (z-score),[26],1.39
same,glycan array binding signal (z-score),[27],0.941
same,glycan array binding signal (z-score),[28],-0.657
same,glycan array binding signal (z-score),[29],1.39
same,glycan array binding signal (z-score),[30],-0.101
same,glycan array binding signal (z-score),[31],0.058
same,glycan array binding signal (z-score),[32],-0.312
same,glycan array binding signal (z-score),[33],0.01
same,glycan array binding signal (z-score),[34],0.215
same,glycan array binding signal (z-score),[35],0.408
same,glycan array binding signal (z-score),[36],-0.636

# Reformatted: results already given.
binder	measurement	setting	value
Flo1 (Saccharomyces cerevisiae), P32768 (protein) SGATEACLPAGQRKSGMNINFYQYSLKDSSTYSNAAYMAYGYASKTKLGSVGGQTDISIDYNIPCVSSSGTFPCPQEDSYGNWGCKGMGACSNSQGIAYWSTDLFGFYTTPTNVTLEMTGYFLPPQTGSYTFKFATVDDSAILSVGGATAFNCCAQQQPPITSTNFTIDGIKPWGGSLPPNIEGTVYMYAGYYYPMKVVYSNAVSWGTLPISVTLPDGTTVSDDFEGYVYSFDDDLSQSNCTVPDPSNY	glycan array binding signal (z-score)	[2]	0.143
same	glycan array binding signal (z-score)	[6]	-0.229
same	glycan array binding signal (z-score)	[9]	0.103
same	glycan array binding signal (z-score)	[11]	0.23
same	glycan array binding signal (z-score)	[13]	-0.296
same	glycan array binding signal (z-score)	[14]	-0.628
same	glycan array binding signal (z-score)	[18]	-0.544
same	glycan array binding signal (z-score)	[25]	1.83
same	glycan array binding signal (z-score)	[33]	0.01
